Test results: patent US4371536A, “β-Carbolin-3-carboxylic acid derivatives” (A/S Ferrosan, priority 1979, dated 1983)

How the values were obtained:
[1] = Inhibition of motor coordination (ataxia) in mice; details: mouse, in vivo, sc, 30 minutes after s.c. administration, read-out: ED50 Ataxia (Motor incoordination)
Protocol: The inhibition of motor coordination in mice was also studied 30 minutes after subcutaneous administration in accordance with a method described in the literature (Buus Lassen et al, Acta pharmacol. et toxicol., 1971, 39, 1-16).

[2] = Acute toxicity in mice (deaths within 24 hours); details: mouse, in vivo
Protocol: The acute toxicity in mice was determined by recording the number of deaths within 24 hours.

## CN1C(=O)CN=C(c2ccccc2)c2cc(Cl)ccc21 [Diazepam, reference compound]
[1]
  TD50 at 0.5 h: 3 mg/kg
[2]
  LD50 at 24 h: 80 mg/kg
